Earlier results on 1 molecule are cited in patent US20160151298A1, “DOCETAXEL POLYMERIC NANOPARTICLES AND METHODS OF TREATING CANCERS USING SAME” (BIND THERAPEUTICS, INC., priority 2013, published 2016).

Molecules are shown by their SMILES.

As to `CC(=O)O[C@@]12CO[C@@H]1C[C@H](O)[C@@]1(C)C(=O)[C@H](O)C3=C(C)[C@@H](OC(=O)[C@H](O)[C@@H](NC(=O)OC(C)(C)C)c4ccccc4)C[C@@](O)([C@@H](OC(=O)c4ccccc4)[C@H]21)C3(C)C` [docetaxel anhydrous, (2R,3S)—N-carboxy-3-phenylisoserine, N-tert-butyl ester, 13-ester with 5-20-epoxy-1,2,4,7,10,13-hexahydroxytax-11-en-9-one 4-acetate 2-benzoate], the Solubility in water result is given as “practically insoluble in water”.
